{"source": "paper PMC12373974", "tested_on": "MBP-BnaA10.SEP (Brassica napus)", "experiment": "EMSA", "conditions": "25°C 30 min binding; 6% native PAGE in 0.5x TBE, 60 V, 4°C; binding buffer not stated; recombinant protein; protein details: MBP (pMAL-C5X); label: 5'-biotin", "note": "Construct, isoform or probe ends are uncertain for at least one entry."}
{"sequence": "TTTCATTAACCTTTGGGTTG (double strand) [GT1-motif probe of pBnaA10/C09.TFL1DTI-100]", "values": [{"measurement": "binding result", "value": "binds"}]}
